From PubChem BioAssay AID1487 (National Center for Advancing Translational Sciences (NCATS), 2009)
The other results are listed elsewhere or left out. The main result of the screen is listed elsewhere. These columns were measured beside it and carry no call. Compounds called inactive in the main read-out are mostly missing here. Words in brackets tell the shape of the fitted curve; partial curves, single points and poor fits give uncertain potencies.

Assay: qHTS Assay for Modulators of Lamin A Splicing
Conditions: HeLa LMNA splicing GFP/RFP minigene ratio, 48 h
How it was run: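 Read-out is the ratio of GFP to DsRed2 object intensity, acquired by 488 nm laser-scanning cytometry on HeLa lamin A-EGFP minigene reporter cells. Compound incubation 48 hrs at 37 °C in Opti-MEM with 2% FBS; DMSO 0.5% final.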

[1] = measured here: RFP viability control channel
[2] = measured here: GFP splicing reporter channel

Structure (SMILES) | AC50 [1] | AC50 [2]
Nc1ccc(C(=O)Nc2ccc3nc(-c4cccnc4)[nH]c3c2)cc1 | 0.0126 µM [falling, full curve] | –
COc1ccccc1NC(=O)CN(c1ccc(C23CC4CC(CC(C4)C2)C3)cc1)S(C)(=O)=O | 12.6 µM [rising, partial curve] | 7.94 µM [rising, partial curve]
CCn1nc([N+](=O)[O-])c2c(-c3nc4ccccc4o3)c(N)n(CCCOC)c2c1=O | 35.5 µM [falling, single point] | –
CCOC(=O)c1cc(CC)sc1/N=C/C1=C(O)CC(C)(C)CC1=O | 0.501 µM [rising, full curve, poor fit] | –
Cc1cccc(C(=O)Nc2cccc(C(=O)N/N=C/c3ccncc3)c2)c1 | 35.5 µM [rising, single point] | –
O=C(Nc1ccc(OCc2ccccc2)cc1)Nc1ccccc1C(=O)NCCCN1CCOCC1 | 11.2 µM [falling, partial curve, poor fit] | –
CCOc1ccc(NC(=O)Cn2nnc(-c3ccccc3NC(=O)CC)n2)cc1 | 22.4 µM [rising, single point] | –
O=C(c1ccccc1)N1CCCC(c2ccc(Cl)cc2)=N1 | 14.1 µM [rising, single point] | 12.6 µM [rising, single point]
CC(=O)NCCNc1ncncc1-c1ccc(N(C)C)cc1 | 14.1 µM [falling, partial curve] | 11.2 µM [falling, partial curve]
Cc1ccccc1-n1ncc2c(SCC(=O)NCc3cccs3)ncnc21 | 11.2 µM [falling, partial curve] | 11.2 µM [falling, partial curve]
Cc1cc(C(=O)Cn2nnc3ccccc3c2=O)c(C)n1Cc1cccs1 | 25.1 µM [rising, single point] | –
O=[N+]([O-])c1ccc(C=Nc2ccc(Cl)cc2Cl)s1 | 7.94 µM [falling, partial curve] | 8.91 µM [falling, partial curve]
O=C(NCC1CCN(Cc2ccc(F)cc2)CC1)c1cc2ccc3cccnc3c2[nH]1 | 0.562 µM [falling, full curve, poor fit] | 1.12 µM [falling, full curve]
Cc1nnc(C)n1/N=C/c1cc(Br)cc(Br)c1O | 12.6 µM [rising, single point] | –
COc1ccc(C2=Nn3c(nnc3-c3ccc(OC)cc3)SC2)cc1 | 35.5 µM [falling, single point] | 11.2 µM [falling, partial curve]

A different layout for 3 compounds above:
Structure (SMILES),AC50 [1],AC50 [2]
O=C(Nc1ccc(OCc2ccccc2)cc1)Nc1ccccc1C(=O)NCCCN1CCOCC1,"11.2 µM [falling, partial curve, poor fit]",–
O=[N+]([O-])c1ccc(C=Nc2ccc(Cl)cc2Cl)s1,"7.94 µM [falling, partial curve]","8.91 µM [falling, partial curve]"
O=C(NCC1CCN(Cc2ccc(F)cc2)CC1)c1cc2ccc3cccnc3c2[nH]1,"0.562 µM [falling, full curve, poor fit]","1.12 µM [falling, full curve]"
